Source: article PMC3853298
Where a chain is given by its changes, count along the chain named. In names and notes the source's numbering stands. No constants are given. Whether binding was seen depends on the method and setting. Some entries that bind do so weakly or less than the wild type. One block for each binder: values may come before it.

Chains of the proteins cited; added tags and fusions are not shown. Lines headed by an entry give the natural chain unless they say otherwise; changes in a name come on top.
UniProt P02454: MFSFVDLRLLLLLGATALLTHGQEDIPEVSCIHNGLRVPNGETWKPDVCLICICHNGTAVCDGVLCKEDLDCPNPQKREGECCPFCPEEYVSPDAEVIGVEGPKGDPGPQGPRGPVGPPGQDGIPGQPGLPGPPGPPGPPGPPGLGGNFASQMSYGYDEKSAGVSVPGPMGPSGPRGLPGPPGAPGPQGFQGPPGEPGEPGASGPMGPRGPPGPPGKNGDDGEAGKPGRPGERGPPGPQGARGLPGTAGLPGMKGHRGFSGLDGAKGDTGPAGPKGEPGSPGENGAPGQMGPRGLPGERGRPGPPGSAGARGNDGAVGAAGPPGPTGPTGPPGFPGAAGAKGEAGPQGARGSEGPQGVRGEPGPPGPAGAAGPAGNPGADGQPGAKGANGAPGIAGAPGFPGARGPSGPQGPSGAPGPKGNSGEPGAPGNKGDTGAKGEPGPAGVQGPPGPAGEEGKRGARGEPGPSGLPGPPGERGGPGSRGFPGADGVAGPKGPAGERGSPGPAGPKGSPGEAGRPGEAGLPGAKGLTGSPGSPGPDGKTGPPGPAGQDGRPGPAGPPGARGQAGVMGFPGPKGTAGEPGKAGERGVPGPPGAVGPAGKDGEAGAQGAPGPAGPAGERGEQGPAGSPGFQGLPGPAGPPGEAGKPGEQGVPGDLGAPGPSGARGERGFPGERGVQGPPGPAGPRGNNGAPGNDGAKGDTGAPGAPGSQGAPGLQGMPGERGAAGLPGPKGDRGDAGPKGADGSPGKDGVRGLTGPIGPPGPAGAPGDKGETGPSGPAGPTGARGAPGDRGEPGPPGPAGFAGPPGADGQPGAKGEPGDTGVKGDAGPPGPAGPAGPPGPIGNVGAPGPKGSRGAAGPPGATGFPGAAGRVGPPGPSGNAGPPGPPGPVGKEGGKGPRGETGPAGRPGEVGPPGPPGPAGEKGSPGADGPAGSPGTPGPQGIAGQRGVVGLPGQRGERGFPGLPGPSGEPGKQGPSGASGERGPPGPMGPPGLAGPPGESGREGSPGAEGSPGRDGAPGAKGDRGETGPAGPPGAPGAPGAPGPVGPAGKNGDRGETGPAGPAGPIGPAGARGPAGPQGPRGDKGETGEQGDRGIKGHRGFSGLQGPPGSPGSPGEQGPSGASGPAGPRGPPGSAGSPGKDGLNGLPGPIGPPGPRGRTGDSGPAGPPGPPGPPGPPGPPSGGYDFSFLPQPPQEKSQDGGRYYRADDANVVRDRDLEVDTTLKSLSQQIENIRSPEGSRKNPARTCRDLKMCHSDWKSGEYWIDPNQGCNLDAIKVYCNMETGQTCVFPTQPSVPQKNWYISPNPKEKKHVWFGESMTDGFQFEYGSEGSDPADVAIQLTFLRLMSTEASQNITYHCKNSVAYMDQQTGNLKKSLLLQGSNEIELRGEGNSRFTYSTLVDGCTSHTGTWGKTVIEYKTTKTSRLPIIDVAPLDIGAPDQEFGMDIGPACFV
UniProt P02466: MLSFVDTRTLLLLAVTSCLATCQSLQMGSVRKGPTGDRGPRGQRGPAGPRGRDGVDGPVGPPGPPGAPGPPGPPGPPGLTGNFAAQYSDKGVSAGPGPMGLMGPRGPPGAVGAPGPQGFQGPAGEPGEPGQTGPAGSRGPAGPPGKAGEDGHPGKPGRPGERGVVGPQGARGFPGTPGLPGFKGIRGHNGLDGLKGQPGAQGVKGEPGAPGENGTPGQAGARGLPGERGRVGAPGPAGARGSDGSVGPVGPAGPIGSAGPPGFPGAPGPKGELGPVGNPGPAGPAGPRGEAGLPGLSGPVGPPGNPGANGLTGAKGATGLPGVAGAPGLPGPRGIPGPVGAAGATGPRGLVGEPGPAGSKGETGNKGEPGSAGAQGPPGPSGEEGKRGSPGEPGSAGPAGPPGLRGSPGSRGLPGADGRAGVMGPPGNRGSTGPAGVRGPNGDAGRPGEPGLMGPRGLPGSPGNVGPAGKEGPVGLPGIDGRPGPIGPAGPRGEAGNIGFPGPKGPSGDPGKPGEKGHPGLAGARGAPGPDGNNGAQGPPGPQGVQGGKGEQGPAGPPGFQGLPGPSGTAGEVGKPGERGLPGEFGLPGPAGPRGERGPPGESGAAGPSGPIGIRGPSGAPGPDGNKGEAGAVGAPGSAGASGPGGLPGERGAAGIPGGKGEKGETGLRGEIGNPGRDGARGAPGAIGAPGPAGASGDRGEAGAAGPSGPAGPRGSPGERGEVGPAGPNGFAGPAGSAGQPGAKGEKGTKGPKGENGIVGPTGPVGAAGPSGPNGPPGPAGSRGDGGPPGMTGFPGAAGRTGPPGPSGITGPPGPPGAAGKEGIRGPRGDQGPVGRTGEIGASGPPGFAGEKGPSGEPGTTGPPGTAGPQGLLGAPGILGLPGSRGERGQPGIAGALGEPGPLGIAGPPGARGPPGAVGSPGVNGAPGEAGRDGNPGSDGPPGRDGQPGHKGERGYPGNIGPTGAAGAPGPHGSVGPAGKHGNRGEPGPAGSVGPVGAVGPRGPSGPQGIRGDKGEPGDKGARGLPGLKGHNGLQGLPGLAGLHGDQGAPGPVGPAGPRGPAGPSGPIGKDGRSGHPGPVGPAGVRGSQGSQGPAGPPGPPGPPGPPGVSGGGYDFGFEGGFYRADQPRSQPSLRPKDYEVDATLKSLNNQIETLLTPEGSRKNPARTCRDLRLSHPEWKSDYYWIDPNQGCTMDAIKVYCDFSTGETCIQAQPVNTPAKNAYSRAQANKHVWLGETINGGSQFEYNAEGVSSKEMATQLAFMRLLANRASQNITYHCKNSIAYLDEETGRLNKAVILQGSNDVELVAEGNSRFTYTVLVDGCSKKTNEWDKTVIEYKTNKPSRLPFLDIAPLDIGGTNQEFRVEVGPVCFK

Target: rat tail type I collagen (rat) (UniProt P02454+P02466)
Experiment: ELISA; solid-phase binding assay: rat tail type I collagen coated on Maxisorp plates (1.25 ug per well), blocked with kappa-casein in PBS with 0.05% Tween 20; decorin proteins incubated 3 h, detected by anti-His tag antibody-HRP; high and variable nonspecific binding reported; both purified

binding: binds
B1: mouse decorin core protein, wild type (residues 45-354) (domain or fragment, UniProt P28654 45-354)
chain: APLALISMCPYRCQCHLRVVQCSDLGLDKVPWDFPPDTTLLDLQNNKITEIKEGAFKNLKDLHTLILVNNKISKISPEAFKPLVKLERLYLSKNQLKELPEKMPRTLQELRVHENEITKLRKSDFNGLNNVLVIELGGNPLKNSGIENGAFQGLKSLSYIRISDTNITAIPQGLPTSLTEVHLDGNKITKVDAPSLKGLINLSKLGLSFNSITVMENGSLANVPHLRELHLDNNKLLRVPAGLAQHKYIQVVYLHNNNISAVGQNDFCRAGHPSRKASYSAVSLYGNPVRYWEIFPNTFRCVYVRSAIQLGNYKAAA
modifications: N-linked glycans (four consensus sites for N-linked glycosylation)

binding: binds
B2: mouse decorin core protein Y51A/R52A/Q54A (residues 45-354) (domain or fragment, UniProt P28654 45-354)
chain: B1 chain with Y11A, R12A, Q14A
modifications: N-linked glycans (four consensus sites for N-linked glycosylation)
